From PMC12097062

Target: T1, Biotin-LACK156-173 (biotinylated 156-173 peptide of the Leishmania homolog of receptors for activated C kinase) (L. major)
T1 sequence (peptide, biotin (position not stated)): ICFSPSLEHPIVVSGSWD
Test: affinity purification with mass spectrometry; Biotin-LACK156-173 on streptavidin-coated magnetic beads, incubated with cell lysate (primary human RA-FLSs) at 4 °C for 12 h; eluate on SDS-PAGE, silver staining, bands identified by mass spectrometry; only the target purified

B1: Dolichyl-Diphosphooligosaccharide-Protein Glycosyltransferase Non-Catalytic Subunit (DDOST) (protein, UniProt P39656 43-456)
chain: SGPRTLVLLDNLNVRETHSLFFRSLKDRGFELTFKTADDPSLSLIKYGEFLYDNLIIFSPSVEDFGGNINVETISAFIDGGGSVLVAASSDIGDPLRELGSECGIEFDEEKTAVIDHHNYDISDLGQHTLIVADTENLLKAPTIVGKSSLNPILFRGVGMVADPDNPLVLDILTGSSTSYSFFPDKPITQYPHAVGKNTLLIAGLQARNNARVIFSGSLDFFSDSFFNSAVQKAAPGSQRYSQTGNYELAVALSRWVFKEEGVLRVGPVSHHRVGETAPPNAYTVTDLVEYSIVIQQLSNGKWVPFDGDDIQLEFVRIDPFVRTFLKKKGGKYSVQFKLPDVYGVFQFKVDYNRLGYTHLYSSTQVSVRPLQHTQYERFIPSAYPYYASAFSMMLGLFIFSIVFLHMKEKEKSD
B1 was tested, and the binding was “binds”.

These are yes or no findings as the source states them, for the method shown. Binding seen in cells or lysates may run through a third protein. These calls come from enrichment with a bait or labelling near it, and not all partners need be listed.
